Laboratory results as given in the supplement of paper PMC10849652.
The other results are listed elsewhere or left out.

The chains behind the UniProt entries cited, without tags or fusion partners. Where a name states a change or a piece, a line headed by the entry shows the natural chain unless it says otherwise.
UniProt Q8N6R0: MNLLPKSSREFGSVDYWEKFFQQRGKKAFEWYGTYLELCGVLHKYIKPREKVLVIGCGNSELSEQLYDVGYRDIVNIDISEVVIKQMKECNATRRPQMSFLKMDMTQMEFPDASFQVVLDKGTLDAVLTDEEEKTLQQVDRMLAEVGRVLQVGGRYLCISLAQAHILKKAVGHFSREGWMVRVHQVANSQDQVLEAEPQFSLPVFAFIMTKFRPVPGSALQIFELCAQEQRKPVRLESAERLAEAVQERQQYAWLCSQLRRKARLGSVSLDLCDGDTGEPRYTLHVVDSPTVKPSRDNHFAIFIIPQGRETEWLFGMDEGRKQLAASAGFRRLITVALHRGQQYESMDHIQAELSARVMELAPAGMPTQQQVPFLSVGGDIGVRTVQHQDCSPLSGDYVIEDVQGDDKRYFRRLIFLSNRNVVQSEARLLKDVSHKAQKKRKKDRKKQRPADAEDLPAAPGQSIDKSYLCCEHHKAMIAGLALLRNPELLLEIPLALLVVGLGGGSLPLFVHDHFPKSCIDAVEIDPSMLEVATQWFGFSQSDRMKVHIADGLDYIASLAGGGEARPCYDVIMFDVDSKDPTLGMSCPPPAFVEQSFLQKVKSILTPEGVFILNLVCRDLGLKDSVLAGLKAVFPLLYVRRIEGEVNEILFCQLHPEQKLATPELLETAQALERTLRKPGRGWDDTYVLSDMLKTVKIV
UniProt Q9GZV4: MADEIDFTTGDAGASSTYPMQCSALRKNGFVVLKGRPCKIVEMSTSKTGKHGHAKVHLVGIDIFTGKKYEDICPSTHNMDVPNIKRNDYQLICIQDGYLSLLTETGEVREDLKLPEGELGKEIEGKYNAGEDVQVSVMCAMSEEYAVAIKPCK
UniProt Q92556, whole entry, looked up: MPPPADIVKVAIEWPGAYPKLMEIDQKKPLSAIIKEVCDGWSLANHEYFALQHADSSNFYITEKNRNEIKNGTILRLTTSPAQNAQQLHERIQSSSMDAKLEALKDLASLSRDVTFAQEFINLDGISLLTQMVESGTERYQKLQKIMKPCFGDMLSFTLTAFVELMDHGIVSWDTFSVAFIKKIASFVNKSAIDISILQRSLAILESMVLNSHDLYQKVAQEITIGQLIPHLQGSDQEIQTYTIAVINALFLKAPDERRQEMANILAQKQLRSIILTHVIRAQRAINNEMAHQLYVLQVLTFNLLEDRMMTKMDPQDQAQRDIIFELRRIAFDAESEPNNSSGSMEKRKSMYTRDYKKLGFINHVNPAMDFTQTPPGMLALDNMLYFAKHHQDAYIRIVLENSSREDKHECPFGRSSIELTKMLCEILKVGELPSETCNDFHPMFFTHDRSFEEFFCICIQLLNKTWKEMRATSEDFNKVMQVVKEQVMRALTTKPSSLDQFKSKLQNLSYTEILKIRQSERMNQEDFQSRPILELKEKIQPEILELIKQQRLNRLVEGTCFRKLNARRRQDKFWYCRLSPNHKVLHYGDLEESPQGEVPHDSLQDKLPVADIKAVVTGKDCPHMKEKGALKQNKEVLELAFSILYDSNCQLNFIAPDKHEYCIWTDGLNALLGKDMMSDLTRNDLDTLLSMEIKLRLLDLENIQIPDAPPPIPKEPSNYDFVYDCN
UniProt Q9H777: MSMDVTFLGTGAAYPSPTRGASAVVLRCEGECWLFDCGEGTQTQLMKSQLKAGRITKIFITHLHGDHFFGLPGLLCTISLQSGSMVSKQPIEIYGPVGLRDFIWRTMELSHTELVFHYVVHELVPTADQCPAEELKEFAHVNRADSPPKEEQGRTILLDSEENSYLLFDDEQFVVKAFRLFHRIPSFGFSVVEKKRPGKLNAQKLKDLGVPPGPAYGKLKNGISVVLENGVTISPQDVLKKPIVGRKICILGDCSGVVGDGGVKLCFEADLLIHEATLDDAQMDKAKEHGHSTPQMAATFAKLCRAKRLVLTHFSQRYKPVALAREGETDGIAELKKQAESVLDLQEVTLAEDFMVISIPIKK
UniProt P50402: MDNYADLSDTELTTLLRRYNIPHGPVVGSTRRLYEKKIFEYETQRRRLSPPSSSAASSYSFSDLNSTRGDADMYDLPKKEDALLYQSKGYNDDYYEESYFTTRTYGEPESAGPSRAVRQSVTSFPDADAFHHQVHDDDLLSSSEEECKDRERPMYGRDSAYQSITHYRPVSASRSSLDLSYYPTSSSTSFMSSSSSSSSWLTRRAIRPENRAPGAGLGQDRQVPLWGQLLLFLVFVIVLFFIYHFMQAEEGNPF
UniProt Q9GZT9: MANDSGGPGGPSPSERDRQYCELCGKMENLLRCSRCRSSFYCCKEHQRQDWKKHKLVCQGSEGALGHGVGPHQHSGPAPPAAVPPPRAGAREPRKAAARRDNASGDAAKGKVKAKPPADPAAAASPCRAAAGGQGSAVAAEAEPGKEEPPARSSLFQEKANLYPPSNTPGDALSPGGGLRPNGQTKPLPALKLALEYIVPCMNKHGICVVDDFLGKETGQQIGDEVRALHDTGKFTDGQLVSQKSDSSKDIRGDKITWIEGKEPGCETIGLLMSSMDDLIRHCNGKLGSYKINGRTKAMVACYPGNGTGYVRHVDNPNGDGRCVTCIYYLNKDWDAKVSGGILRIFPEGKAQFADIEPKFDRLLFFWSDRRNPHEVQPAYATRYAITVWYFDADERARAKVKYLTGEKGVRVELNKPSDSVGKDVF
UniProt Q5NDL2: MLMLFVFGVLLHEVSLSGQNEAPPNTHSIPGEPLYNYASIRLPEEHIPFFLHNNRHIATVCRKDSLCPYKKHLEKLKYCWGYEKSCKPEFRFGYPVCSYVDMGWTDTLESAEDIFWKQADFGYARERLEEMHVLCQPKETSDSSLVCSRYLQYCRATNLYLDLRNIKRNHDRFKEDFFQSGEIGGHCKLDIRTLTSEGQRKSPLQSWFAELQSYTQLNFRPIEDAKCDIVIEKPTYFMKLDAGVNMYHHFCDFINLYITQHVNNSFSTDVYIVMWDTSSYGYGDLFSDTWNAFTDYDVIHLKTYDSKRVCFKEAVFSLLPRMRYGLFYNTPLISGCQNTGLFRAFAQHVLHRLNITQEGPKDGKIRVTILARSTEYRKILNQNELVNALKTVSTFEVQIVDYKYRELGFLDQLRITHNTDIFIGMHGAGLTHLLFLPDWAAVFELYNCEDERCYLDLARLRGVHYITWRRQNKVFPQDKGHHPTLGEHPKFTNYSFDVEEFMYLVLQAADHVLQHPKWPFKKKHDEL
UniProt P60842, whole entry, looked up: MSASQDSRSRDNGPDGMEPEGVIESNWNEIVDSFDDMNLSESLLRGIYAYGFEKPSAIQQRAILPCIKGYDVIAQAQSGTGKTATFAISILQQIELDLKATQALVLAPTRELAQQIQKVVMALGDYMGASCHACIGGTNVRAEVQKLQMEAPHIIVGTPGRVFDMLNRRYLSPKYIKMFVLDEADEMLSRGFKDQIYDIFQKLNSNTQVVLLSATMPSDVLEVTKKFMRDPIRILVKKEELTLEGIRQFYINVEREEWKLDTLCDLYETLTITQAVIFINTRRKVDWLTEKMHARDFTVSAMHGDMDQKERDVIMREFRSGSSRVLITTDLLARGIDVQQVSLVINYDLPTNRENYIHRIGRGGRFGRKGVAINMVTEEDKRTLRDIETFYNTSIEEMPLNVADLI
UniProt Q9NZN4: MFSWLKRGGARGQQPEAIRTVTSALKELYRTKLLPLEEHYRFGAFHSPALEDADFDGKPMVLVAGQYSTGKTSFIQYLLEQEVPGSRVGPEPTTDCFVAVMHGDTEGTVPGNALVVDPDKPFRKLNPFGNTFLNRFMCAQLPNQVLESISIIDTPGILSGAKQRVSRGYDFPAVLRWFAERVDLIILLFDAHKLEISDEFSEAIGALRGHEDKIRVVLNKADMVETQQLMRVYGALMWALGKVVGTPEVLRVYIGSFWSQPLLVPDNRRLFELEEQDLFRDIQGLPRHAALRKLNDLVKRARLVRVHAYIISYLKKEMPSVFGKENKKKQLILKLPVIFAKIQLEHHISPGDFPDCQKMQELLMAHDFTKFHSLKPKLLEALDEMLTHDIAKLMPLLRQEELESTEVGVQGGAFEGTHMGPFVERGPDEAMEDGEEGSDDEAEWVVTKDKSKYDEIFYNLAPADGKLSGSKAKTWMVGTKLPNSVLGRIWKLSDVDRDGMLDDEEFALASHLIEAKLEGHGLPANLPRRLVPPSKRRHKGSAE
UniProt Q8N3D4: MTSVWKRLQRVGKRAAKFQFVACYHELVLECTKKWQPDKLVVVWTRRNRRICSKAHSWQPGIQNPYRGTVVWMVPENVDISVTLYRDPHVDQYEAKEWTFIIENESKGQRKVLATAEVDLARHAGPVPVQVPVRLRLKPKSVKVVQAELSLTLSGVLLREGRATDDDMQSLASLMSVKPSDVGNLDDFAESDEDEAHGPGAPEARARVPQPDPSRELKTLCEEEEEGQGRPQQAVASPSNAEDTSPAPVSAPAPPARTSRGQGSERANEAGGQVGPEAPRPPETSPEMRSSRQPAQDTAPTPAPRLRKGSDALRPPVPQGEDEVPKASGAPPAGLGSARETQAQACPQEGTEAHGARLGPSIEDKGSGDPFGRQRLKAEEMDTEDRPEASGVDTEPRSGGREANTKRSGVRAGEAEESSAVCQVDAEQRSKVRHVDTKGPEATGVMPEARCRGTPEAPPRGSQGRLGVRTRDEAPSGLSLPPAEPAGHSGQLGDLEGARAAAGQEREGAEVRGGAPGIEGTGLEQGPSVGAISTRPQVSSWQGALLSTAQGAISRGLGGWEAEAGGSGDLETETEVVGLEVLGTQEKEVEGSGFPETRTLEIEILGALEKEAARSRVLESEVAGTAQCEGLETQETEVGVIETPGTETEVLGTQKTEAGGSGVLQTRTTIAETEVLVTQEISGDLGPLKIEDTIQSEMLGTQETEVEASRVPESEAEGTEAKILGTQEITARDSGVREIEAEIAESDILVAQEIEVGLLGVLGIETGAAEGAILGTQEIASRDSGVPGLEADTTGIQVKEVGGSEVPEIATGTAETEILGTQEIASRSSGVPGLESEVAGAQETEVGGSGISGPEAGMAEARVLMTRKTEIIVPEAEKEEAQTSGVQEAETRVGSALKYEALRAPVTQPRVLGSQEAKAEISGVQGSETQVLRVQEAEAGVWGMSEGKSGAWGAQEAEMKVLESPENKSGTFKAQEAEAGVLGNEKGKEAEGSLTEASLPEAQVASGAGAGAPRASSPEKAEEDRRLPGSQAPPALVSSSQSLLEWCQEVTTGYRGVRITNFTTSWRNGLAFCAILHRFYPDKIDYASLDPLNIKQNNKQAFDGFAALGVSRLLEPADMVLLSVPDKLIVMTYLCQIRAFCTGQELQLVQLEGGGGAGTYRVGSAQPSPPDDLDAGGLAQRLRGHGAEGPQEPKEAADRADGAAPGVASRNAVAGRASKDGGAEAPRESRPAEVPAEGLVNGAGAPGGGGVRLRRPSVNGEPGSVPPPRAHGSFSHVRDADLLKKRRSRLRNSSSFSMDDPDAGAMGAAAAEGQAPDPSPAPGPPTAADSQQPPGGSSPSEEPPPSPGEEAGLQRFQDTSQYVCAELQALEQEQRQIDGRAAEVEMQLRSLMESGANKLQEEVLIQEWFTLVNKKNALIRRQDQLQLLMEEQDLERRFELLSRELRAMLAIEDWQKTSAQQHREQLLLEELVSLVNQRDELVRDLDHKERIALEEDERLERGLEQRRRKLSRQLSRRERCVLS
UniProt Q9NQZ7: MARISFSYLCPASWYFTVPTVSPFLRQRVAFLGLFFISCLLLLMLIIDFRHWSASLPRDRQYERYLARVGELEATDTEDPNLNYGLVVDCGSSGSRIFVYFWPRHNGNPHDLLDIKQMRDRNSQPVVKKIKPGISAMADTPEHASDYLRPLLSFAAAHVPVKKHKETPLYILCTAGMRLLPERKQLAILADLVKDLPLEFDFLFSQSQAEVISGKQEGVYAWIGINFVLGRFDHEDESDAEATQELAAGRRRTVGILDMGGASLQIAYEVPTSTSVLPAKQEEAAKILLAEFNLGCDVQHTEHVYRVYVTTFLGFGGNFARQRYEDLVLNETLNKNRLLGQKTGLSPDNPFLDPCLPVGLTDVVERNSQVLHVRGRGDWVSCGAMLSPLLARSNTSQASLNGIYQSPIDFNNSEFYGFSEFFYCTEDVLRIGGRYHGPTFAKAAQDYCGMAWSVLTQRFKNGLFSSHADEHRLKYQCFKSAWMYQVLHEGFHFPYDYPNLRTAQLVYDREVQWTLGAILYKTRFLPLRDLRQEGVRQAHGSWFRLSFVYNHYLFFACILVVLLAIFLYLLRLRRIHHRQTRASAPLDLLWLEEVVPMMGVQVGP
UniProt P24534: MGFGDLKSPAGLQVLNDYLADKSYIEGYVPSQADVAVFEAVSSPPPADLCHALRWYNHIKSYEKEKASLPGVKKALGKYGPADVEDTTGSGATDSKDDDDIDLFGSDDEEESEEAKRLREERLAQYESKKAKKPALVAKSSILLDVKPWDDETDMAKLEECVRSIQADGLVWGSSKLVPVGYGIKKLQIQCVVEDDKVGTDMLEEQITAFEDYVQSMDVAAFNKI

Tests used:
Assay in all cases: log2 fold change, soluble protein after heating vs DMSO (PISA); higher = thermal stabilisation; K562 cells, 10 uM, 30 min; active = over 0.2 and 3.5 SD of the protein, either way, in both replicates (recomputed)
saracatinib = compound: CN1CCN(CCOc2cc(OC3CCOCC3)c3c(Nc4c(Cl)ccc5c4OCO5)ncnc3c2)CC1 [saracatinib]
Summary of the method: (§1)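 Soluble protein was defined as the supernatant after 21,000xg for 90 min. It came from K562 cells at 2×10^6 cells/mL given 10 μM compound for 30 min, heated in aliquots for 3 min across 48°C-58°C, pooled, and extracted in PBS with 0.5% NP-40 at 4°C, and was quantified by TMTpro 16plex LC-MS/MS with equalised channel sums. Thermal stability against control samples, from duplicates, is reported as log2 fold change.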

sotrastaurin = compound: CN1CCN(c2nc(C3=C(c4c[nH]c5ccccc45)C(=O)NC3=O)c3ccccc3n2)CC1 [sotrastaurin]
Summary of the method: as §1

Tubastatin A = compound: CN1CCc2c(c3ccccc3n2Cc2ccc(C(=O)NO)cc2)C1 [Tubastatin A]
Summary of the method: as §1

[1] = compound: CNC(=O)C1=CC=CC=C1NC2=NC(=NC=C2Cl)NC3=C(C=C(C=C3)N4CCOCC4)OC
Summary of the method: as §1

defactinib = compound: CNC(=O)c1ccc(Nc2ncc(C(F)(F)F)c(NCc3nccnc3N(C)S(C)(=O)=O)n2)cc1 [defactinib]
Summary of the method: as §1

rucaparib = compound: CNCc1ccc(-c2[nH]c3cc(F)cc4c3c2CCNC4=O)cc1 [rucaparib]
Summary of the method: as §1

[2] = compound: CNc1nc(-c2ccc3c(N)n[nH]c3c2)cc(N2C[C@@H](C(=O)NC3CCCCC3)CC[C@H]2C)n1
Summary of the method: as §1

encorafenib = compound: COC(=O)N[C@@H](C)CNc1nccc(-c2cn(C(C)C)nc2-c2cc(Cl)cc(NS(C)(=O)=O)c2F)n1 [encorafenib]
Summary of the method: as §1

[3] = compound: COC(=O)[C@H](CCSC)NC(=O)C1=C(C=C(C=C1)NC[C@H](CS)N)C2=CC=CC=C2
Summary of the method: as §1

[4] = compound: COC1=CC=C(C=C1)CN2C=CC3=C2C=C(C=C3)C(=O)NO
Summary of the method: as §1

filanesib = compound: CON(C)C(=O)N1N=C(c2cc(F)ccc2F)S[C@@]1(CCCN)c1ccccc1 [filanesib]
Summary of the method: as §1

zotarolimus = compound: CO[C@H]1C[C@@H]2CC[C@@H](C)[C@@](O)(O2)C(=O)C(=O)N2CCCC[C@H]2C(=O)O[C@H]([C@H](C)C[C@@H]2CC[C@H](n3cnnn3)[C@H](OC)C2)CC(=O)[C@H](C)/C=C(\C)[C@@H](O)[C@@H](OC)C(=O)[C@H](C)C[C@H](C)/C=C/C=C/C=C/1C [zotarolimus]
Summary of the method: as §1

idasanutlin = compound: COc1cc(C(=O)O)ccc1NC(=O)[C@@H]1N[C@@H](CC(C)(C)C)[C@](C#N)(c2ccc(Cl)cc2F)[C@H]1c1cccc(Cl)c1F [idasanutlin]
Summary of the method: as §1

alisertib = compound: COc1cc(Nc2ncc3c(n2)-c2ccc(Cl)cc2C(c2c(F)cccc2OC)=NC3)ccc1C(=O)O [alisertib]
Summary of the method: as §1

[5] = compound: COc1cc2nc(-c3cc(F)ccc3O)nc(N[C@@H]3CNC[C@H]3C(C)(C)O)c2cc1OC
Summary of the method: as §1

gefitinib = compound: COc1cc2ncnc(Nc3ccc(F)c(Cl)c3)c2cc1OCCCN1CCOCC1 [gefitinib]
Summary of the method: as §1

[6] = compound: COc1cccc2cc(-c3nc([C@H]4CC[C@H](C(=O)O)CC4)n4ncnc(N)c34)[nH]c12
Summary of the method: as §1

lapatinib = compound: CS(=O)(=O)CCNCc1ccc(-c2ccc3ncnc(Nc4ccc(OCc5cccc(F)c5)c(Cl)c4)c3c2)o1 [lapatinib]
Summary of the method: as §1

pictilisib = compound: CS(=O)(=O)N1CCN(Cc2cc3nc(-c4cccc5[nH]ncc45)nc(N4CCOCC4)c3s2)CC1 [pictilisib]
Summary of the method: as §1

alvocidib = compound: CN1CC[C@H](c2c(O)cc(O)c3c(=O)cc(-c4ccccc4Cl)oc23)[C@H](O)C1 [alvocidib]
Summary of the method: as §1

Measured: log2 fold change

EEF1AKNMT (UniProt Q8N6R0)
inactive: saracatinib -0.063 | sotrastaurin -0.174 | Tubastatin A -0.004 | [1] 0.063 | defactinib -0.068 | rucaparib 0.115 | [2] 0.059 | encorafenib 0.095 | [3] -0.182 | [4] -0.256 | filanesib -0.052 | zotarolimus 0.096 | idasanutlin 0.013 | alisertib -0.035 | [5] 0.037 | gefitinib 0.065 | [6] -0.037 | lapatinib -0.014 | pictilisib 0

EIF5A2 (UniProt Q9GZV4)
inactive: saracatinib -0.153 | alvocidib -0.018 | [2] -0.07 | zotarolimus 0.036 | idasanutlin 0.048 | alisertib 0.05 | [6] 0.02

ELMO1 (UniProt Q92556)
inactive: saracatinib 0.051 | sotrastaurin 0.046 | [1] -0.074 | defactinib -0.045 | [2] 0.041 | [3] -0.222 | [4] -0.108 | filanesib 0.072 | alisertib 0.212 | gefitinib 0.017 | [6] 0.08

EEF1G isoform 2 (UniProt P26641)
inactive: saracatinib -0.012 | sotrastaurin -0.041 | Tubastatin A -0.008 | [1] 0.075 | defactinib -0.051 | rucaparib 0.045 | [2] 0.02 | encorafenib 0.076 | [3] -0.047 | [4] -0.017 | filanesib 0.012 | zotarolimus 0.027 | idasanutlin -0.014 | alisertib -0.046 | [5] -0.016 | gefitinib 0.018 | [6] -0.083 | lapatinib 0.041 | pictilisib -0.06

ELAC1 (UniProt Q9H777)
inactive: saracatinib 0.094 | sotrastaurin 0.006 | [1] -0.056 | defactinib -0.031 | rucaparib 0.153 | [2] 0.049 | encorafenib 0.063 | [3] 0.022 | [4] 0.022 | filanesib 0.083 | zotarolimus -0.06 | idasanutlin 0.122 | [5] 0.06 | gefitinib 0.112 | lapatinib -0.009 | pictilisib 0.049

EMD (UniProt P50402)
inactive: saracatinib 0.011 | sotrastaurin 0.063 | Tubastatin A -0.028 | [1] -0.046 | defactinib -0.027 | rucaparib 0.008 | [2] -0.064 | encorafenib -0.056 | [3] 0.032 | [4] -0.049 | filanesib -0.013 | zotarolimus 0.007 | idasanutlin 0.037 | alisertib -0.08 | [5] -0.031 | gefitinib -0.053 | [6] 0.074 | lapatinib -0.025 | pictilisib 0.093

EGLN1 (UniProt Q9GZT9)
active: Tubastatin A -0.296 | [4] -0.361
inactive: saracatinib -0.01 | sotrastaurin -0.074 | [1] 0.065 | defactinib -0.027 | rucaparib 0.114 | [2] 0.03 | encorafenib 0.001 | [3] 0.002 | filanesib -0.07 | zotarolimus -0.022 | idasanutlin -0.004 | alisertib 0.018 | [5] 0.018 | gefitinib 0.022 | [6] -0.074 | lapatinib 0.01 | pictilisib 0.009

EOGT (UniProt Q5NDL2)
inactive: saracatinib -0.012 | sotrastaurin 0.052 | Tubastatin A 0.025 | [1] 0 | defactinib 0.031 | rucaparib 0.014 | [2] -0.158 | encorafenib 0.042 | [3] -0.032 | [4] -0.026 | filanesib 0.053 | zotarolimus 0.013 | idasanutlin 0.036 | alisertib 0.028 | [5] 0.056 | gefitinib 0.008 | [6] -0.021 | lapatinib 0.068 | pictilisib 0.007

EIF4A1 (UniProt P60842)
inactive: saracatinib -0.029 | sotrastaurin -0.138 | Tubastatin A 0.049 | [1] -0.03 | defactinib -0.116 | rucaparib 0 | [2] 0.012 | encorafenib 0.071 | [3] -0.05 | [4] 0.061 | filanesib -0.11 | zotarolimus -0.009 | idasanutlin -0.075 | alisertib -0.004 | [5] -0.01 | gefitinib 0.004 | [6] -0.027 | lapatinib 0.016 | pictilisib -0.088

EIF3I (UniProt Q5TFK1)
inactive: saracatinib -0.023 | alvocidib -0.13 | Tubastatin A 0.07 | [2] -0.176 | [4] 0.028 | zotarolimus 0.1 | idasanutlin 0.193

EHD2 (UniProt Q9NZN4)
inactive: saracatinib 0.016 | sotrastaurin 0.017 | Tubastatin A 0.048 | [1] -0.031 | defactinib -0.12 | rucaparib -0.019 | [2] -0.053 | encorafenib 0.046 | [3] -0.061 | [4] 0.001 | filanesib -0.013 | zotarolimus 0.007 | idasanutlin -0.025 | alisertib -0.02 | [5] 0.092 | gefitinib -0.034 | [6] 0.055 | lapatinib -0.06 | pictilisib -0.051

EHBP1L1 (UniProt Q8N3D4)
inactive: saracatinib -0.065 | sotrastaurin -0.082 | Tubastatin A 0.098 | [1] -0.002 | defactinib -0.089 | rucaparib 0.1 | [2] -0.008 | encorafenib 0.127 | [3] -0.017 | [4] 0.054 | filanesib 0.147 | zotarolimus 0.065 | idasanutlin -0.021 | alisertib -0.098 | [5] 0.119 | gefitinib -0.009 | [6] -0.026 | lapatinib 0.03 | pictilisib 0.217

ENTPD7 (UniProt Q9NQZ7)
inactive: saracatinib 0.155 | sotrastaurin 0.17 | Tubastatin A 0.064 | [1] -0.162 | rucaparib -0.078 | [2] 0.136 | encorafenib -0.26 | [4] -0.031 | filanesib -0.268 | alisertib -0.054 | [5] 0.06 | gefitinib -0.026 | [6] 0.03 | lapatinib 0.099

EEF1B2 (UniProt P24534)
inactive: saracatinib -0.091 | sotrastaurin -0.061 | Tubastatin A 0.017 | [1] 0.06 | defactinib -0.064 | rucaparib 0.041 | [2] -0.013 | encorafenib 0.07 | [3] -0.046 | [4] 0.033 | filanesib 0.031 | zotarolimus 0.035 | idasanutlin 0.007 | alisertib 0.023 | [5] 0.03 | gefitinib 0.024 | [6] -0.061 | lapatinib -0.029 | pictilisib 0.014

Two neighbouring records already listed, quoted:
EHBP1L1 (UniProt Q8N3D4)
inactive: saracatinib -0.065 | sotrastaurin -0.082 | Tubastatin A 0.098 | [1] -0.002 | defactinib -0.089 | rucaparib 0.1 | [2] -0.008 | encorafenib 0.127 | [3] -0.017 | [4] 0.054 | filanesib 0.147 | zotarolimus 0.065 | idasanutlin -0.021 | alisertib -0.098 | [5] 0.119 | gefitinib -0.009 | [6] -0.026 | lapatinib 0.03 | pictilisib 0.217

ENTPD7 (UniProt Q9NQZ7)
inactive: saracatinib 0.155 | sotrastaurin 0.17 | Tubastatin A 0.064 | [1] -0.162 | rucaparib -0.078 | [2] 0.136 | encorafenib -0.26 | [4] -0.031 | filanesib -0.268 | alisertib -0.054 | [5] 0.06 | gefitinib -0.026 | [6] 0.03 | lapatinib 0.099
